Measurements from doi:10.1101/2025.10.13.682238.

By UniProt entry, the sequences of proteins in these tests, tags left out.
UniProt P0A6F5: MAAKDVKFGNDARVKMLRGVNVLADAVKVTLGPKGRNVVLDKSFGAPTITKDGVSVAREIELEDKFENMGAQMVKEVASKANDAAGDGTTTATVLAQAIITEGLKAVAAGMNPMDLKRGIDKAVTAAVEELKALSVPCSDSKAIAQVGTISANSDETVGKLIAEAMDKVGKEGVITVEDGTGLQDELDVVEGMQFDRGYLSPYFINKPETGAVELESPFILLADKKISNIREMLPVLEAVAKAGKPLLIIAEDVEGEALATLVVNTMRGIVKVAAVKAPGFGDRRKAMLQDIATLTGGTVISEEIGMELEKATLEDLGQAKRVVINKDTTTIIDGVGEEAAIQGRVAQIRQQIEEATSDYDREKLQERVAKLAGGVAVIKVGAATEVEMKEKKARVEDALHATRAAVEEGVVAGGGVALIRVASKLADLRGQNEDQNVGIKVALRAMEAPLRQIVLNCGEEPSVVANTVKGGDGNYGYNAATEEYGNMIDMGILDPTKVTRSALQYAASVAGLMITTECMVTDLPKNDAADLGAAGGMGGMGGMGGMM

Target: T1, GST-∆N-ATAD2B, res 380–1458 (human ATPase family AAA+ domain-containing protein 2B), expressed in E. coli (human) (UniProt Q9ULI0)
T1 sequence: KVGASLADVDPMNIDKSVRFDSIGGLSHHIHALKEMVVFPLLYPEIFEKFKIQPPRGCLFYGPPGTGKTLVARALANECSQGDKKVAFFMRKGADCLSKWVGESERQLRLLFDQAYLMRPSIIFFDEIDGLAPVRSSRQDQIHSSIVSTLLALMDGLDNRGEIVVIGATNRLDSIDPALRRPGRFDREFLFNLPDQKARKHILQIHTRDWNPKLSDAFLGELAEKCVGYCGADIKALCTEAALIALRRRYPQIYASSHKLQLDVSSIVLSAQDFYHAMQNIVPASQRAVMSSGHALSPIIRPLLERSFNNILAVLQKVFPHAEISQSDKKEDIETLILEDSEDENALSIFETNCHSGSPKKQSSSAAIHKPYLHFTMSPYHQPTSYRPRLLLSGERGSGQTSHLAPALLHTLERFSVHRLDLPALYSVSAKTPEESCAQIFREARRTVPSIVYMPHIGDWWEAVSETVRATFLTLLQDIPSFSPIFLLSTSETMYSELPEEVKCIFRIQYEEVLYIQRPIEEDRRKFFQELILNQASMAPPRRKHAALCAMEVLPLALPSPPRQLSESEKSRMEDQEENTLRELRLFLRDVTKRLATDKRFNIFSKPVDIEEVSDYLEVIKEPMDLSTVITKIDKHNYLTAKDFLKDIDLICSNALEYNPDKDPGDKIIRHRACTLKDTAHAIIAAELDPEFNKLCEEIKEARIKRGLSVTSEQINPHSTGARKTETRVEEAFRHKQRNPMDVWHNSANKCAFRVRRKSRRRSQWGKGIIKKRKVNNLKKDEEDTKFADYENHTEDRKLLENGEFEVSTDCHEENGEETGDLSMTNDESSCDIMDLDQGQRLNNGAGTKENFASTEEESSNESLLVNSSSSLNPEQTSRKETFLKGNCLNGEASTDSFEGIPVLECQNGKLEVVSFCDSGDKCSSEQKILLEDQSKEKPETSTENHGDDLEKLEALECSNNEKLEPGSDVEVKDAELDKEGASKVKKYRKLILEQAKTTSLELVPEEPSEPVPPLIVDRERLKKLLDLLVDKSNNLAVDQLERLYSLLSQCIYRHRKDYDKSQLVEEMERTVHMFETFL
Assay: affinity purification with mass spectrometry; GST-∆N-ATAD2B purified from E. coli by GST affinity and size exclusion chromatography; 58 kDa band on SDS-PAGE and liquid sample identified by mass spectrometry once E. coli proteins were included in the search; GroEL stayed after unfolded bacterial lysate with ATP was added

Q: For “GroEL (E. coli chaperonin) (from UniProt P0A6F5 1-548)”, which binding is on record?
A: binds

These are yes or no findings as the source states them, for the method shown. In cells and extracts the contact can be indirect. Here binding means that the protein was enriched with, or labelled near, the bait; the list need not be complete. Sequences can lack the tags named with a protein.
